Results are given in words; binding and its absence hold for the method and conditions named. A result given as binding can be weak or reduced; the word gives no strength.

By UniProt entry, the sequences of proteins in these tests, tags left out. Where a name states a change or a piece, a line headed by the entry shows the natural chain unless it says otherwise.
UniProt P96747: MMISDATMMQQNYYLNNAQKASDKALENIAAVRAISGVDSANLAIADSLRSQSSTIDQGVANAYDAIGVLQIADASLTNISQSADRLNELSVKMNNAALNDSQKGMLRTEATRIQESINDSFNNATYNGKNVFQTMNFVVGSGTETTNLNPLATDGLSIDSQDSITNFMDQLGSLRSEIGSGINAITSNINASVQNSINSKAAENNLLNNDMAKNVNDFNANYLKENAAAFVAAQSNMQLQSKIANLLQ

Assay in all cases: two-hybrid; LexA-based yeast two-hybrid; full length ORFs as LexA BD fusions (MAL62 promoter, strain Y309) mated with AD fusions (GAL1 promoter, strain RFY231); two-phase pooled matrix screen plus a library screen of 94 BD strains; LEU2 and lacZ reporters, background-corrected combined score >= 1; positives retested in one-on-one matings
Experiment [1] has as its target T1, PyrC2 (C. jejuni NCTC11168) (UniProt Q0P961).
T1 sequence: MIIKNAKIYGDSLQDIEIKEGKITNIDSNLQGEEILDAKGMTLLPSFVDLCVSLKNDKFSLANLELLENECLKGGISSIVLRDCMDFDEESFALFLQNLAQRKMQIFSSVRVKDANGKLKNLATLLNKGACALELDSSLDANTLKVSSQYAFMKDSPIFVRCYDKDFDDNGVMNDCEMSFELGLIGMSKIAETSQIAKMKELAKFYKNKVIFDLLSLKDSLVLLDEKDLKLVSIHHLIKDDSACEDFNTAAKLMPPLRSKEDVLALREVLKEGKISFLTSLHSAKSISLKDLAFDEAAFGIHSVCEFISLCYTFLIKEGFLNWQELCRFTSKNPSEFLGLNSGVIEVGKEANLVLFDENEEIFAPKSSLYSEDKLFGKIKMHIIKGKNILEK

The target of experiment [2] is T2, FlaA (C. jejuni NCTC11168) (UniProt P56963).
T2 sequence: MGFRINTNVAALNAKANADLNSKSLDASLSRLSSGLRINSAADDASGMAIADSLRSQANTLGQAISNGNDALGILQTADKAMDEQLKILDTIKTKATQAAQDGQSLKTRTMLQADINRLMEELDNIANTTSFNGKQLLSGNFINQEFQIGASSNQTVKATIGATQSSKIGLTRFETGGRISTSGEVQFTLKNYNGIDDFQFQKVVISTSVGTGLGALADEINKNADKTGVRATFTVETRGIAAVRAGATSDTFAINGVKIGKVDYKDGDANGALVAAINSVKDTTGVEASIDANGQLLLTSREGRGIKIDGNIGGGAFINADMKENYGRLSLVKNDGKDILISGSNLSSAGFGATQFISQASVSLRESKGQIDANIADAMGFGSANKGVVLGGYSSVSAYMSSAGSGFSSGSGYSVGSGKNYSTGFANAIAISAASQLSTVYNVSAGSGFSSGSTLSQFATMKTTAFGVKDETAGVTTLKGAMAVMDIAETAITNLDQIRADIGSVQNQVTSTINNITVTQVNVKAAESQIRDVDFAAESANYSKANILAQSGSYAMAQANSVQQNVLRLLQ

Experiment [3] deals with FlaC (C. jejuni NCTC11168) (UniProt P96747).
Experiment [4] has as its target Cj0643 (C. jejuni NCTC11168) (UniProt Q0PAM5).
For experiment [5], the target named is Cj0240c (C. jejuni NCTC11168) (UniProt Q0PBR4).

Turning to PyrB (C. jejuni NCTC11168), the binding result in experiment [1] is “binds”. Turning to FliS (from UniProt Q0PAW7), the binding entry in experiment [2] and in experiment [3] was “binds” each time.

B1: CheA (protein, UniProt Q0PBM2 1-769)
chain: MEDMQEILEDFLVEAFELVEQIDHDLVELESNPEDLELLNRIFRVAHTVKGSSSFLNFDVLTKLTHHMEDVLNKARHGELKITPDIMDVVLESIDRMKTLLNSIRDNGNDTAIGMDIEPICARLTAISEGESPVVATDSNEKSIPQAELEAPKQEIATPEPEVDVNQLSDSEVEAEIERLLKVRKAEDQARRAQKKQTTNAAPKPTNNTANKPTESGEKKVPASGSNASSMDQTIRVEVKRLDHLMNLIGELVLGKNRLLKIYDDVEERYEGEKFLEELNQVVSQLSIIITDVQLAVMKTRMQPIAKVFNKFPRVVRDLSRELGKQIELEITGEETELDKSIVEEIGDPIMHMIRNSCDHGVEDPATRAANGKPEKGIVQLKAYNEGNHIVVEITDDGKGLDPNGLKAKAIEKNLITEREADQMTDKEAFALIFKPGFSTAAKVTNVSGRGVGMDVVKTNIEKLNGVIEIDSELGKGSSFKLKIPLTLAIIQSLLVGTQEEFYAIPLASVLETVRVPIDDIYTIEGKNVLRLRDEVLSLVRLSDVFGVKQVLESGDQTYVVVIGVAESKLGIIVDTLVGQEEIVIKSMGDYLQNIQGIAGATIRGDGRVTLIIDVGAMMDMAKEIKVDIKAQLESSAKKPKEQPSDYKVLIVDDSKMDRTLMQKALEPLGVSLIEATNGVEALNIIKSGEHDIDAMLIDIEMPRMDGYTLAGEIRKYSKYRNLPLIAVTSRTSKTDRLRGVEVGMTEYITKPYSPEYLENVVRKNLKLG
In the case of B1, the binding result in experiment [4] is listed as “binds”.

B2: Cj0980 (protein, UniProt Q0P9S2 1-422)
chain: MQNVIENFKQLCKIPHCSYETEQMKEFLSSYAKDKGFKVSVDKAGNIHAIKGKPKICLQSHYDMVCMGDAPNLEVYEENGFLRAKNSSLGADNGIGIAIMMSAMAEFENLECLFTNDEEVGLMGVNLLEHTLESKMLLNLDHESDDEIMIGCAGGVDIEASLSFNTLRKKGKIYELCAQNFKGGHSGINIIRNEKSSIKEMAKFIQENEGEIISFEGGERINSIPKHAKALVHFKDEVKSNNWIKCEFKEENEFEICDQSKKLLSLINSFTHGVRAYDENLDIVQTSINLATLRMQDNQIKFALFARSNILDGLKQVEFETLEFFKAFDFKIRSFNFYPPWEGKPNALSDMVFKALKKVSPNAKVSAIHAGLECGIIEKKQELLCASIGPNIHNPHSTDEHCEIASVEKISKVVFEVLKDNA
Consider B2, for which, in experiment [5], the binding entry is “binds”.

The record behind these values is PMC2323224.
